Data published in patent US20260207616A1, “COMBINATION THERAPIES FOR TREATMENT OF HEARING DISORDERS” (GATEWAY BIOTECHNOLOGY, INC., priority 2023, published 2026).
At least one compound was matched to its structure with a doubt left.

System: tinnitus positive mice
Assay: go/no-go trials, sound-based avoidance detection (SBAD) in noise-induced tinnitus mice
Format: in vivo
Conditions: intraperitoneal injection
Description: With reference to FIGS. 1A-1D, single drug treatment of tinnitus is evaluated using the go/no-go methodology further elaborated upon in Example 4. With reference to FIGS. 2A-2B, multi drug treatment of tinnitus is evaluated using the go/no-go methodology further elaborated upon in Example 4. […] Using a shuttle box divided into two compartments, mice were trained to cross from side to side with sound cues in the “Go” trials and remain still in the absence of sound in the “No-Go” trials for 15 days. […] The sound cues were randomly played as white noise or narrow-band noise at 8,10,12.5,16, and 29 kHz with sound intensities randomly at 75, 80, or 85 dB. […] Additionally, a hurdle was added on training 11 to reinforce the training. After the 15th training day, mice were tested for 3 days to obtain a baseline score to be compared after noise exposure, as well as retraining for 3 days. Following the successful completion of training so that mice reached a high percentage of success in the trials, the mice were exposed to a noise-induced trauma for tinnitus over a two day period. To ensure that the mice still have their hearing, one ear was protected with an ear plug, while the other ear was exposed to the noise. The mice were placed in a sound booth where they were exposed to 120 dB broadband noise at 4-25 kHz for two hours. […]

How did the “correct percentage result in the no-go trial” value (TET 30 mg/kg) turn out when `COc1ccc2cc1Oc1ccc(cc1)C[C@H]1c3cc(c(OC)cc3CCN1C)Oc1c(OC)c(OC)cc3c1[C@H](C2)N(C)CC3` [TET, tetrandrine] was run?
Its value is “no change”.

With `COCCOC(=O)C1=C(C)NC(C)=C(C(=O)OC(C)C)C1c1cccc([N+](=O)[O-])c1` (centres unmarked) [NMDP, nimodipine] as the compound, how does the “correct percentage result in the no-go trial” value (NMDP 10 mg/kg, within a margin of error) read?
Its value is “only a slight change”.
